Assay results as given in the supplement of paper PMC10849652.
The other results are listed elsewhere or left out.

Key:
Assay in all cases: log2 fold change, soluble protein after heating vs DMSO (PISA); higher = thermal stabilisation; K562 lysate, 10 uM; active = over 0.2 and 3.5 SD of the protein, either way, in both replicates (recomputed)
[1] = compound: Cc1cn(-c2cc(NC(=O)c3ccc(C)c(Nc4nccc(-c5cccnc5)n4)c3)cc(C(F)(F)F)c2)cn1 [nilotinib]
How it was run: (§1)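 Soluble protein was defined as the supernatant remaining after 21,000xg for 90 min, following pooling of heated aliquots and adjustment to 0.5% NP-40 at 4°C. Before that, crude K562 extract at 1 mg/mL protein in PBS pH 7.4 with 1 mM MgCl2 was treated with 10 μM compound for 30 min and heated for 3 min across 48°C-58°C. Quantification used TMTpro 16plex LC-MS/MS with channel sums equalised, and values are log-two fold changes in thermal stability relative to solvent controls from duplicates.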

[2] = compound: Cc1nc(Nc2n[nH]c3c2CN(C(=O)N[C@H](CN(C)C)c2ccccc2)C3(C)C)c2sccc2n1
How it was run: as §1

[3] = compound: Cc1nc(Nc2ncc(C(=O)Nc3c(C)cccc3Cl)s2)cc(N2CCN(CCO)CC2)n1 [dasatinib]
How it was run: as §1

[4] = compound: Cc1ncc(-c2ccnc(Nc3ccc(S(C)(=O)=O)cc3)n2)n1C(C)C
How it was run: as §1

[5] = compound: Cn1cc(-c2ccc3c(c2)CCN3C(=O)Cc2cccc(C(F)(F)F)c2)c2c(N)ncnc21
How it was run: as §1

[6] = compound: Cn1cc(CNCC2CCN(c3ncc(C(=O)NO)cn3)CC2)c2ccccc21 [quisinostat]
How it was run: as §1

[7] = compound: Cn1cncc1[C@@](N)(c1ccc(Cl)cc1)c1ccc2c(c1)c(-c1cccc(Cl)c1)cc(=O)n2C [tipifarnib]
How it was run: as §1

[8] = compound: NC(=O)Nc1cc(-c2cccc(F)c2)sc1C(=O)N[C@H]1CCCNC1
How it was run: as §1

[9] = compound: NC(=O)c1cnc(N[C@@H]2CCCC[C@@H]2N)nc1Nc1cccc(-n2nccn2)c1
How it was run: as §1

[10] = compound: NC1(c2ccc(-c3nc4ccn5c(=O)[nH]nc5c4cc3-c3ccccc3)cc2)CCC1
How it was run: as §1

Target | log2 fold change [1] | log2 fold change [2] | log2 fold change [3] | log2 fold change [4] | log2 fold change [5] | log2 fold change [6] | log2 fold change [7] | log2 fold change [8] | log2 fold change [9] | log2 fold change [10]
PROCR (UniProt Q9UNN8) | inactive: -0.26 | inactive: -0.054 | inactive: 0.049 | inactive: -0.14 | inactive: 0.165 | inactive: 0.035 | inactive: -0.102 | inactive: -0.067 | inactive: -0.003 | inactive: -0.031
PPP2R2A isoform 2 (UniProt P63151) | inactive: -0.005 | inactive: -0.015 | inactive: -0.045 | inactive: 0.009 | inactive: -0.005 | inactive: 0.023 | inactive: 0.004 | inactive: -0.007 | inactive: -0.006 | inactive: -0.044
PPP1R18 (UniProt Q6NYC8) | inactive: -0.004 | inactive: 0.017 | inactive: 0.029 | inactive: 0.004 | inactive: -0.004 | inactive: -0.027 | inactive: -0.02 | inactive: -0.027 | inactive: 0.027 | inactive: 0.013
PPP3CC (UniProt P48454) | inactive: -0.003 | inactive: 0.11 | inactive: -0.1 | inactive: -0.033 | inactive: 0.016 | inactive: -0.025 | inactive: -0.008 | inactive: -0.06 | inactive: 0.053 | inactive: 0.023
PRMT7 (UniProt Q9NVM4) | inactive: 0.039 | inactive: -0.01 | inactive: 0.032 | inactive: -0.029 | inactive: -0.032 | inactive: -0.041 | inactive: -0.011 | inactive: 0.023 | inactive: 0.028 | inactive: 0.025
PRKAR1B (UniProt P31321) | inactive: 0.011 | inactive: -0.056 | inactive: -0.044 | inactive: 0.016 | inactive: 0.243 | inactive: 0.191 | inactive: 0.022 | inactive: -0.09 | inactive: 0.003 | inactive: -0.008
PPP2R5D (UniProt Q14738) | inactive: 0.004 | inactive: 0.014 | inactive: -0.016 | inactive: -0.011 | inactive: 0.042 | inactive: 0.028 | inactive: 0.013 | inactive: 0.027 | inactive: -0.021 | inactive: 0.012
PPP1R21 (UniProt Q6ZMI0) | inactive: 0.032 | inactive: 0.005 | inactive: -0.06 | inactive: -0.022 | inactive: 0.002 | inactive: -0.104 | inactive: 0.017 | inactive: 0.054 | inactive: 0.008 | inactive: 0.052
PPP6R3 isoform 5 (UniProt Q5H9R7) | inactive: -0.015 | inactive: 0.012 | inactive: 0.015 | inactive: 0.003 | inactive: 0.011 | inactive: -0.052 | inactive: -0.011 | inactive: -0.001 | inactive: -0.006 | inactive: -0.048
PRADC1 (UniProt Q9BSG0) | inactive: 0.1 | inactive: -0.1 | inactive: 0.019 | inactive: -0.047 | inactive: 0.053 | inactive: -0.007 | inactive: 0.296 | inactive: -0.031 | inactive: -0.016 | inactive: 0.013
PRKD2 isoform 3 (UniProt Q9BZL6) | inactive: 0.079 | inactive: -0.229 | inactive: 0.028 | inactive: -0.054 | inactive: 0.04 | inactive: -0.046 | inactive: 0.069 | inactive: -0.115 | inactive: 0.06 | inactive: -0.01
PPP1R35 (UniProt Q8TAP8) | inactive: 0.057 | inactive: -0.104 | inactive: 0.042 | inactive: 0.042 | inactive: 0.081 | inactive: 0.084 | inactive: -0.076 | inactive: 0.047 | inactive: 0.019 | inactive: 0.206
PRDX5 (UniProt P30044) | inactive: 0.005 | inactive: 0.006 | inactive: 0.006 | inactive: 0.018 | inactive: -0.002 | inactive: 0.02 | inactive: 0.022 | inactive: -0.037 | inactive: -0.012 | inactive: 0.016
PRPF4B (UniProt Q13523) | inactive: 0.004 | inactive: -0.042 | inactive: 0.007 | inactive: 0.073 | inactive: -0.002 | inactive: -0.015 | inactive: -0.009 | inactive: -0.021 | inactive: 0.045 | inactive: -0.028
PRPF39 (UniProt Q86UA1) | inactive: -0.031 | inactive: -0.008 | inactive: -0.023 | inactive: 0.011 | inactive: 0.007 | inactive: -0.01 | inactive: 0.001 | inactive: 0.06 | inactive: 0.005 | inactive: -0.056
PPP2R5C isoform 5 (UniProt Q13362) | inactive: 0.016 | inactive: 0.003 | inactive: -0.053 | inactive: 0.022 | inactive: -0.005 | inactive: 0.016 | inactive: 0.074 | inactive: 0.032 | inactive: 0.059 | inactive: -0.019
PPP1R10 (UniProt Q96QC0) | inactive: -0.021 | inactive: 0.038 | inactive: 0.01 | inactive: 0.007 | inactive: 0.007 | inactive: 0.005 | inactive: -0.068 | inactive: 0.002 | inactive: -0.041 | inactive: 0.013
PPP1R7 (UniProt Q15435) | inactive: -0.004 | inactive: 0.008 | inactive: -0.023 | inactive: -0.028 | inactive: 0.033 | inactive: -0.025 | inactive: 0.016 | inactive: -0.023 | inactive: -0.004 | inactive: 0.021
PPIP5K1 (UniProt Q6PFW1) | inactive: -0.072 | inactive: -0.005 | inactive: -0.001 | inactive: -0.053 | inactive: 0.067 | inactive: -0.031 | inactive: 0.008 | inactive: 0.094 | inactive: 0.057 | inactive: 0.024
PPP2R1B isoform 2 (UniProt P30154) | inactive: 0.015 | inactive: 0.005 | inactive: -0.005 | inactive: -0.022 | inactive: 0.038 | inactive: -0.033 | inactive: 0.013 | inactive: 0.041 | inactive: 0.069 | inactive: 0.034
PRDX3 (UniProt P30048) | inactive: 0.002 | inactive: 0.013 | inactive: 0.039 | inactive: 0.024 | inactive: -0.065 | inactive: -0.05 | inactive: -0.002 | inactive: -0.012 | inactive: -0.046 | inactive: 0.038
PRKCSH (UniProt P14314) | inactive: 0.01 | inactive: 0.016 | inactive: 0.037 | inactive: 0.041 | inactive: -0.003 | inactive: 0.088 | inactive: 0.008 | inactive: -0.006 | inactive: -0.004 | inactive: 0.036
PRNP (UniProt P04156) | inactive: -0.033 | inactive: 0.053 | inactive: 0.024 | inactive: 0.022 | inactive: 0.021 | inactive: -0.019 | inactive: -0.027 | inactive: -0.09 | inactive: -0.125 | inactive: 0.094
PRKCA (UniProt P17252) | inactive: -0.008 | inactive: 0.227 | inactive: -0.028 | inactive: 0.095 | inactive: -0.056 | inactive: -0.035 | inactive: 0 | inactive: -0.067 | active: 0.408 | inactive: -0.006
PREPL (UniProt Q4J6C6) | inactive: -0.024 | inactive: 0.018 | inactive: 0.012 | inactive: -0.02 | inactive: 0.004 | inactive: 0.014 | inactive: 0.015 | inactive: 0.005 | inactive: -0.02 | inactive: 0.002
PREB (UniProt Q9HCU5) | inactive: -0.013 | inactive: 0.078 | inactive: 0.005 | inactive: 0.062 | inactive: -0.012 | inactive: -0.038 | inactive: 0.035 | inactive: 0.04 | inactive: -0.008 | inactive: -0.026
PPP1R14A (UniProt Q96A00) | inactive: -0.06 | inactive: -0.003 | inactive: -0.029 | inactive: 0.037 | inactive: -0.001 | inactive: -0.017 | inactive: 0.035 | inactive: -0.031 | inactive: -0.017 | inactive: 0.013
PRKAR2A (UniProt P13861) | inactive: -0.036 | inactive: -0.051 | inactive: -0.065 | inactive: -0.016 | inactive: 0.017 | inactive: 0.02 | inactive: 0.025 | inactive: -0.198 | inactive: -0.037 | inactive: -0.011
PPP2R1A (UniProt P30153) | inactive: 0.026 | inactive: -0.008 | inactive: -0.024 | inactive: 0.01 | inactive: 0.02 | inactive: 0.085 | inactive: 0.008 | inactive: -0.011 | inactive: -0.001 | inactive: 0.015
PRORP (UniProt O15091) | inactive: 0.137 | inactive: -0.176 | inactive: -0.044 | inactive: 0.029 | inactive: 0.02 | inactive: -0.071 | inactive: -0.128 | inactive: 0.096 | inactive: 0.064 | inactive: -0.179

Full records, quoted from the list. Order of values: log2 fold change [1]	log2 fold change [2]	log2 fold change [3]	log2 fold change [4]	log2 fold change [5]	log2 fold change [6]	log2 fold change [7]	log2 fold change [8]	log2 fold change [9]	log2 fold change [10]
PRDX3 (UniProt P30048) in the list: inactive: 0.002	inactive: 0.013	inactive: 0.039	inactive: 0.024	inactive: -0.065	inactive: -0.05	inactive: -0.002	inactive: -0.012	inactive: -0.046	inactive: 0.038
PRORP (UniProt O15091) in the list: inactive: 0.137	inactive: -0.176	inactive: -0.044	inactive: 0.029	inactive: 0.02	inactive: -0.071	inactive: -0.128	inactive: 0.096	inactive: 0.064	inactive: -0.179
